The record followed here is patent publication US10329476B2, “Non-regulated synthetic acid compositions for use as alternatives to conventional acids in the oil and gas industry” (FLUID ENERGY GROUP LTD., priority 2015, dated 2019).

Data set [1] is described as follows: Corrosion testing on chromed stainless steel coupons. The following applies: 55° C., 72 hours.
Data set [2] can be described thus: Corrosion testing on Chrome 13 coupons. The following applies: 55° C., 72 hours.
Data set [3] is described as follows: Corrosion testing on N80 coupons, MSA-Urea vs Example 1. The note with it: 90° C., 50% concentration.

In the case of `CS(=O)(=O)O` [MSA (70%), Methanesulfonic acid], in data set [1], the “Corrosion Lb/ft2” value is reported as 0.043 Lb/ft2 and the Loss weight was found to be 0.693 g. For the same compound, in data set [2], the “Corrosion Lb/ft2” value was 0.035 Lb/ft2 and the Loss weight came out at 0.534 g.

For the compound `CS(=O)(=O)O` [MSA-No Urea, Methanesulphonic acid], in data set [3] (run time 6 hours), the “Corrosion Mils/yr” value amounted to 13348.09 Mils/yr, the “Corrosion lb/ft^2” value is recorded as 0.374 lb/ft^2, the Corrosion mm/year worked out at 339.041 mm/year and the Loss wt. is given as 5.279 g. In data set [3] (run time 24 hours), the “Corrosion Mils/yr” value was 3435.63 Mils/yr, the “Corrosion lb/ft^2” value was determined as 0.385 lb/ft^2, the Corrosion mm/year amounted to 87.265 mm/year and the Loss wt. was 5.435 g.
